For some of these results: At least one structure is not confirmed: it was looked up by name or label, or the drawing left a doubt. Some of these results come from one statement about several compounds together. Some compounds share one range, which may span the group rather than tell each member.
What was measured:
UT = settings: cited from earlier work
rat UT-A1 = target: T1, rat UT-A1 (Rattus norvegicus, UniProt Q62668); test: UT-A1-facilitated urea flux across MDCK-UT-A1 cell layers; type: cell-based; settings: forskolin 10 μM; phloretin 0.7 mM
T1 sequence (Q62668 1-929): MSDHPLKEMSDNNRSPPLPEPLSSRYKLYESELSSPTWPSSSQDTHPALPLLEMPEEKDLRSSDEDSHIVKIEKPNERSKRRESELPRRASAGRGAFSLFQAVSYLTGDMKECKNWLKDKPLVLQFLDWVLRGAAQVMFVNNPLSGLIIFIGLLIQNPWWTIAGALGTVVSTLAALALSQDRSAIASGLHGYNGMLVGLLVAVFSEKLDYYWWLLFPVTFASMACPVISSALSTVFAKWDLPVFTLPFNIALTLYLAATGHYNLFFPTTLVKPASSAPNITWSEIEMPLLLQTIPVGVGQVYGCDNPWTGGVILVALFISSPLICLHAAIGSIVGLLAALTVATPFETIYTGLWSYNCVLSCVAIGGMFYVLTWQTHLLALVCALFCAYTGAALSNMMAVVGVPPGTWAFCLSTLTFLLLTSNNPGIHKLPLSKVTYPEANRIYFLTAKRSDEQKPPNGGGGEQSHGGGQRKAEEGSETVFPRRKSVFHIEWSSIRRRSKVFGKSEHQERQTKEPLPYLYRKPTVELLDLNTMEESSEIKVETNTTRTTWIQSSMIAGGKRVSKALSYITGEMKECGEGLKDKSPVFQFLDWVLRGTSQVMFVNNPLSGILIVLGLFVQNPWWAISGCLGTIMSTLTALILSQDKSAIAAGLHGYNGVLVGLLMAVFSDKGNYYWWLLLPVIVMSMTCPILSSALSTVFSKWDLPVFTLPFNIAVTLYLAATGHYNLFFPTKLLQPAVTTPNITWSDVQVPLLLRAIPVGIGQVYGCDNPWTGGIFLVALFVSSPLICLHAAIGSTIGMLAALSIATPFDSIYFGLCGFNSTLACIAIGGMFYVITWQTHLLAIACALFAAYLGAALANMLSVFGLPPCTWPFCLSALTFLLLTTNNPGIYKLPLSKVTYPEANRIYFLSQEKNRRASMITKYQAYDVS
Protocol: Concentration-inhibition studies were performed to study the effect of the active mouse UT-B inhibitors on urea transport by UT-A. The amino acid sequences of UT-B and UT-A urea transporter isoforms share significant similarity. The cells used in these studies were MDCK cells that expressed rat UT-A1. MDCK-UT-A1-expressing cells were grown on collagen-coated porous filters until they were electrically tight, at which point 15 mM urea was introduced into buffer bathing the basolateral cell surface. […]
UT-A1-facilitated urea flux in the basolateral-to-apical direction across unstimulated and forskolin-stimulated MDCK-UT-A1 cell layers was measured in response to a 15-mM urea gradient. […] Five μL samples of apical fluid were collected at specified times during incubation at 37° C., and urea concentration was determined using a commercial kit based on chromogenic urea complexation at 520-nm wavelength (Quantichrom™ Urea Assay Kit, BioAssay Systems, Hayward, Calif.). […] Aforsk, and Aphlor were averaged absorbance values (at 520 nm) for cultures treated with forskolin and forskolin+phloretin, respectively, and Atest were values from cultures treated with forskolin+test compound.

UT-B = target: T2, UT-B (Homo sapiens, UniProt Q13336); test: Stopped-flow light scattering, urea permeability of human RBCs; type: cell-based; design: a red blood cell (i.e., erythrocyte), which endogenously expresses the urea transporter UT-B; endogenous in cells; host or cells: human red blood cells (whole blood, single donor); settings: 10 min pre-incubation; 0.1 μM ureainh-101, 0.4 μM ureainh-302
T2 sequence (Q13336 1-389): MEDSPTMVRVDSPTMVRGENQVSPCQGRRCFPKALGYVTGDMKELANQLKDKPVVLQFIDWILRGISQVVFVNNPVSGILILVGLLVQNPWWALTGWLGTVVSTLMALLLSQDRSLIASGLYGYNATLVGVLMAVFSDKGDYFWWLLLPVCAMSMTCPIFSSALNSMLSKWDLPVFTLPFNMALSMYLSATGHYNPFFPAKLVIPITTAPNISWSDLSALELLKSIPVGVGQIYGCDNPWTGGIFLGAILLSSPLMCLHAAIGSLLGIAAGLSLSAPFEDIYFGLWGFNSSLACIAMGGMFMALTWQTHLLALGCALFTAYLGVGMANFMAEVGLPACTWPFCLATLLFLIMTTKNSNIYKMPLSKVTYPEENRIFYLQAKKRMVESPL
Protocol: RBC urea and water permeabilities were assayed by stopped-flow light scattering using a Hi-Tech Sf-51 instrument (Wiltshire, UK). For measurement of urea permeability, dilutions of whole blood (human or mouse; see Example 1) in PBS (hematocrit: approximately 0.5%) were incubated with test compounds for 5 min and then subjected to a 250-mM inwardly directed gradient of urea. After an initial osmotic shrinking phase, the kinetics of increasing cell volume caused by urea influx were measured as the time-course of 90° scattered light intensity at 530 nm, with increasing cell volume resulting in reduced scattered light intensity. […]
After repeating the 96-well plate RBC lysis assay to confirm compound activity (see Example 2), bona fide urea transport inhibition was determined by stopped-flow light scattering from the kinetics of urea influx (RBC swelling) in response to an inwardly directed urea gradient. […]
To determine EC50 values for urea transport inhibition directly, RBC urea transport was measured by stopped-flow light scattering using a non-saturating concentration of extracellular urea (to avoid possible competition effects). EC50 for inhibition of RBC urea transport was determined independently by comparing stopped-flow light scattering curves to a model of cell shrinking-swelling. […]

| Structure (SMILES) | concentration exhibiting activity as UT inhibitor (UT) [mM] | also measured |
| --- | --- | --- |
| CNC(=O)NC [dimethylurea] | 50 to 100 |  |
| C=C[C@@]1(C)CC(=O)[C@]2(O)[C@@]3(C)[C@@H](O)CCC(C)(C)[C@@H]3[C@H](O)[C@H](OC(C)=O)[C@@]2(C)O1 [forskolin] |  | effect on UT-A1-facilitated urea transport (rat UT-A1): strongly increased |
| CNC(N)=O [methylurea] | 50 to 100 |  |
| Cc1ccc(Nc2nnc(-c3ccc(C(N)=O)cc3)c3ccccc23)cc1 [ureainh-302] |  | transport inhibition after pre-incubation (UT-B): greater than 95% |
